Earlier results as cited in US10647664B2, “Substituted hydroxamic acid compounds” (Duke University, priority 2013, dated 2020).
≈ marks a conversion by molar mass, not a printed value. At least one structure is not confirmed: it was looked up by name or label, or the drawing left a doubt.

System: N. gonorrhoeae 35/02 (drug-resistant strain)
Settings: N. gonorrhoeae strain 35/02; description of the strain's resistance; cited from earlier work

For C=CC1=C(C(=O)O)N2C(=O)[C@@H](NC(=O)/C(=N\OCC(=O)O)c3csc(N)n3)[C@H]2SC1 [cefixime], the MIC is listed as 0.28 µg/mL (≈ 0.617 µM).
